Experimental data from the supplement of paper PMC8960247.

Test system: 621-102 (TSC2-deficient)
Assay: relative viability vs DMSO (fraction); higher = less cytotoxic
Conditions: serum: 0.1% FBS, 72 h

Structure (SMILES) | relative viability (0.0128 nM) | relative viability (0.064 nM) | relative viability (0.32 nM) | relative viability (1.6 nM) | relative viability (8 nM) | relative viability (40 nM) | relative viability (200 nM) | relative viability (1000 nM) | relative viability (5000 nM)
C#CCN(C)[C@H](C)Cc1ccccc1 [Selegiline hydrochloride] | 0.83 | 0.809 | 0.825 | 0.758 | 0.821 | 0.781 | 0.813 | 0.755 | 0.82
CO[C@H]1C[C@@H]2CC[C@@H](C)[C@@](O)(O2)C(=O)C(=O)N2CCCC[C@H]2C(=O)O[C@H]([C@H](C)C[C@@H]2CC[C@@H](OC(=O)C(C)(CO)CO)[C@H](OC)C2)CC(=O)[C@H](C)/C=C(\C)[C@@H](O)[C@@H](OC)C(=O)[C@H](C)C[C@H](C)/C=C/C=C/C=C/1C | 0.858 | 0.908 | 0.823 | 0.825 | 0.691 | 0.369 | 0.262 | 0.201 | 0.146
Oc1ncnc2[nH]ncc12 [Allopurinol] | 0.435 | 0.613 | 0.55 | 0.582 | 0.638 | 0.643 | 0.563 | 0.56 | 0.644
c1ccc2c(CC3=NCCN3)cccc2c1 [Naphazoline HCl] | 0.769 | 0.856 | 0.863 | 0.792 | 0.814 | 0.775 | 0.836 | 0.8 | 0.79
Nc1nc(Nc2ccc(S(N)(=O)=O)cc2)nn1C(=O)c1c(F)cccc1F | 0.401 | 0.997 | 1.03 | 0.869 | 0.925 | 0.999 | 0.795 | 0.882 | 0.0864
CC[C@@]1(O)C(=O)OCc2c1cc1n(c2=O)Cc2cc3c(CN(C)C)c(O)ccc3nc2-1 [Topotecan HCl] | 0.836 | 0.847 | 0.778 | 0.82 | 0.785 | 0.363 | 0.0277 | 0.0231 | 0.0138
Oc1cccc(-c2nc(N3CCOCC3)c3oc4ncccc4c3n2)c1 [PI-103] | 0.925 | 0.893 | 0.844 | 0.949 | 0.841 | 0.645 | 0.765 | 0.569 | 0.478
O=C1NC(=O)/C(=C\c2ccc3nccnc3c2)S1 | 0.97 | 0.954 | 0.937 | 1.02 | 1.02 | 0.941 | 0.862 | 0.823 | 0.445
CNCCCC12CCC(c3ccccc31)c1ccccc12 [Maprotiline HCl] | 0.901 | 0.912 | 0.948 | 0.965 | 0.895 | 0.816 | 0.79 | 0.806 | 0.642
Cc1[nH]c2ccccc2c1CCNCc1ccc(/C=C/C(=O)NO)cc1 [Panobinostat (LBH589)] | 0.358 | 0.341 | 0.454 | 0.616 | 0.619 | 0.0972 | 0.0118 | 0.00934 | 0.0118
C[C@H](N[C@@H](CCc1ccccc1)C(=O)O)C(=O)N1CCC[C@H]1C(=O)O [Enalaprilat Dihydrate] | 0.651 | 0.659 | 0.748 | 0.717 | 0.787 | 0.767 | 0.882 | 0.769 | 0.809
C/C(=C\c1csc(C)n1)[C@@H]1C[C@@H]2O[C@]2(C)CCC[C@H](C)[C@H](O)[C@@H](C)C(=O)C(C)(C)[C@@H](O)CC(=O)O1 [Epothilone B (EPO906, Patupilone)] | 1.15 | 0.88 | 0.0632 | 0.0136 | 0.0115 | 0.0109 | 0.0118 | 0.0111 | 0.0156
O=c1cc(N2CCOCC2)oc2c(-c3ccccc3)cccc12 | 0.869 | 0.892 | 1.01 | 0.864 | 0.605 | 0.559 | 0.735 | 0.869 | 0.61
CC(C)(C)OC(=O)N[C@H]1CCCCC/C=C\[C@@H]2C[C@@]2(C(=O)NS(=O)(=O)C2CC2)NC(=O)[C@@H]2C[C@@H](OC(=O)N3Cc4cccc(F)c4C3)CN2C1=O [Danoprevir(ITMN-191)] | 0.447 | 0.709 | 0.647 | 0.744 | 0.804 | 0.73 | 0.776 | 0.832 | 0.825
CC(C)c1cc(C(C)C)c(CC(=O)NS(=O)(=O)Oc2c(C(C)C)cccc2C(C)C)c(C(C)C)c1 [Avasimibe] | 0.631 | 0.652 | 0.184 | 0.191 | 0.11 | 0.172 | 0.284 | 0.193 | 0.0444
O=C(NC[C@H](O)CO)c1ccncc1Nc1ccc(I)cc1F | 0.833 | 0.812 | 0.798 | 0.834 | 0.741 | 0.784 | 0.752 | 0.602 | 0.43
CC(C)n1c(/C=C/C(O)CC(O)CC(=O)O)c(-c2ccc(F)cc2)c2ccccc21 (stereo not drawn) [Fluvastatin Sodium] | 0.835 | 0.79 | 0.79 | 0.755 | 0.777 | 0.758 | 0.796 | 0.698 | 0.814
C=CCNC1=C2C[C@@H](C)C[C@H](OC)[C@H](O)[C@@H](C)/C=C(\C)[C@H](OC(N)=O)[C@@H](OC)/C=C\C=C(/C)C(=O)NC(=CC1=O)C2=O [17-AAG (Tanespimycin)] | 0.873 | 0.831 | 0.873 | 0.953 | 0.827 | 0.815 | 0.817 | 0.804 | 0.83
N=C(N)NC(=N)N1CCOCC1 [Moroxydine HCl] | 1.09 | 0.354 | 0.427 | 1.09 | 0.403 | 0.187 | 0.577 | 0.555 | 0.614
Cn1c(N2CCCCS2(=O)=O)nc(C(=O)NCc2ccc(F)cc2)c(O)c1=O | 0.803 | 0.757 | 0.852 | 0.858 | 0.843 | 0.859 | 0.848 | 0.763 | 0.834
C[C@]12C=CC(=O)N[C@@H]1CC[C@@H]1[C@@H]2CC[C@]2(C)[C@@H](C(=O)Nc3cc(C(F)(F)F)ccc3C(F)(F)F)CC[C@@H]12 [Dutasteride] | 0.722 | 0.711 | 0.715 | 0.645 | 0.654 | 0.564 | 0.516 | 0.483 | 0.534
O=C1NC(=O)/C(=C/c2ccc(-c3ccc(F)cc3O)o2)S1 | 0.87 | 0.898 | 0.906 | 0.828 | 0.799 | 0.774 | 0.747 | 0.795 | 0.381

Another view of 2 compounds above.

| Structure (SMILES) | relative viability (0.0128 nM) | relative viability (0.064 nM) | relative viability (0.32 nM) | relative viability (1.6 nM) | relative viability (8 nM) | relative viability (40 nM) | relative viability (200 nM) | relative viability (1000 nM) | relative viability (5000 nM) |
| --- | --- | --- | --- | --- | --- | --- | --- | --- | --- |
| C[C@H](N[C@@H](CCc1ccccc1)C(=O)O)C(=O)N1CCC[C@H]1C(=O)O [Enalaprilat Dihydrate] | 0.651 | 0.659 | 0.748 | 0.717 | 0.787 | 0.767 | 0.882 | 0.769 | 0.809 |
| C[C@]12C=CC(=O)N[C@@H]1CC[C@@H]1[C@@H]2CC[C@]2(C)[C@@H](C(=O)Nc3cc(C(F)(F)F)ccc3C(F)(F)F)CC[C@@H]12 [Dutasteride] | 0.722 | 0.711 | 0.715 | 0.645 | 0.654 | 0.564 | 0.516 | 0.483 | 0.534 |

Structures can show the parent of a compound that is named as a salt. This is a noisy data set.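 The cells are immortalized human renal angiomyolipoma cells carrying an empty vector, so TSC2 stays lost. Viability was read by a luminescent ATP assay and normalized to vehicle-treated wells on each plate, in low-serum medium where TSC2-rescued cells do not grow.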
